# Assay results reported in patent US20120189566A1 (DAIICHI FINE CHEMICAL CO., LTD., priority 2009, published 2012).
# Read-outs that look alike come from different tables or passages of the source.
# Key:
# [1] = 0.1% (w/v) in 50 mM buffer, 40° C. for 6 months
# [2] = pH stability of pantethine-4′,4″-diphosphate, pantethine-4′-phosphate and pantethine (Example 2); conditions: 0.1% (w/v) in 50 mM buffer, 40° C. for 3 months, diphosphate tested as sodium salt
# [3] = pH stability of barium pantethine-4′,4″-diphosphate, pantethine and calcium pantetheine-5-sulfonate (Example 1); conditions: 0.1% (w/v) in 50 mM buffer, 40° C. for 6 months, diphosphate tested as barium salt
# [4] = pH 4 or lower, or pH 6.5 or higher
structure (smiles),measurement,setting,value
"CC(C)(CO)[C@@H](O)C(=O)NCCC(=O)NCCSSCCNC(=O)CCNC(=O)[C@H](O)C(C)(C)CO [Pantethine, pantethine]",stability (content by HPLC before and after heating),[1]; between pH 5 and 6,no difference in stability
same,stability (content by HPLC before and after heating),[1]; [4],clearly degraded
same,stability (content by HPLC before and after heating),"[2]; pH 4 or lower, or pH 7 or higher",clearly degraded
same,stability (content by HPLC before and after heating),[2]; pH between 5 and 6,no difference in stability
same,stability (content by HPLC before and after heating),[3]; between pH 5 and 6,stable
same,stability (content by HPLC before and after heating),[3]; [4],clearly degraded
